# PubChem BioAssay AID1259314 | Drosophila RNAi Screening Center – 2017
# Test: 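Genes whose knock-down alters cell survival under toxic manganese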 (primary screen)
# Cells: Drosophila S2R+ cells
# Reagents: long dsRNA against Drosophila genes
# Time to read-out: 5 days (4 days knock-down, then 1 day metal exposure)
# Conditions: manganese chloride added to 15 mM for 24 hours
# Measured: 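Luciferase ATP signal used as a proxy for viable cell number, reported as one averaged z-score per dsRNA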
# Reading the numbers: mean ATP z-score: higher = more ATP than the plate average, more viable cells under manganese
# Call rule: 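a mean ATP z-score past 1.5 in either direction is called active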
# Meaning of the calls: active = strong ATP change, up or down; inactive = no strong ATP change
# The whole screen tested about 3,100 reagents; shown is an unselected part. Of all reagents, 289 (9.3%) were called active. 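Active includes both higher and lower ATP than plate average; check the z-score sign for direction.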 Names joined by + are all predicted targets of the reagent. No sequences are given here. Not stated in the record: the amount of reagent.
Target gene,dsRNA,mean ATP z-score,call
CG6845,DRSC08576,-0.961,inactive
CG6845,DRSC26319,1.36,inactive
CG5592,DRSC10524,-0.516,inactive
CG5592,DRSC39427,-0.0496,inactive
Cad87A,DRSC16161,1.13,inactive
Cad87A,DRSC29158,0.111,inactive
CG15880,DRSC00474,-0.172,inactive
CG15880,DRSC39795,0.611,inactive
Cds,DRSC10938,-0.913,inactive
ttv,DRSC07709,1.41,inactive
ttv,DRSC26088,-1.29,inactive
Gr59f,DRSC04499,0.351,inactive
Gr59f,DRSC27044,-0.537,inactive
CG10081,DRSC05962,-0.914,inactive
CG10081,DRSC24787,1.36,inactive
Or35a,DRSC03389,-0.0192,inactive
Or35a,DRSC39514,-0.805,inactive
CG12783,DRSC14538,0.0403,inactive
mthl1,DRSC19905,-0.186,inactive
mthl1,DRSC39903,-0.885,inactive
CG6928,DRSC10749,0.25,inactive
CG6928,DRSC39754,-0.993,inactive
CG12974,DRSC11684,-1.11,inactive
CG12974,DRSC39561,0.562,inactive
ABCB7,DRSC08603,1.67,active
rpk,DRSC21656,0.13,inactive
CG31272,DRSC16058,0.303,inactive
CG31272,DRSC37457,-0.63,inactive
Gp210,DRSC04861,-0.414,inactive
Gp210,DRSC39541,-0.0517,inactive
dpy,DRSC00233,-0.33,inactive
dpy,DRSC00234,-0.0993,inactive
dpy,DRSC00472,-0.744,inactive
PGRP-LC,DRSC08980,0.741,inactive
PGRP-LC,DRSC10416,-1.05,inactive
PGRP-LC,DRSC10417,-1.18,inactive
PGRP-LC,DRSC28556,-0.992,inactive
CG12290,DRSC14497,0.00621,inactive
CG12290,DRSC28328,0.273,inactive
Tsp5D,DRSC18380,0.371,inactive
Tsp5D,DRSC39908,2,active
Eglp3,DRSC04293,0.126,inactive
Eglp3,DRSC25630,0.864,inactive
Or59b,DRSC04632,0.51,inactive
MME1,DRSC02714,0.37,inactive
MME1,DRSC39544,-0.288,inactive
et,DRSC19582,-0.118,inactive
Tsp42Eg,DRSC06112,1.13,inactive
CG13887,DRSC08357,-0.205,inactive
CG16904,DRSC15161,-0.135,inactive
CG16904,DRSC25306,0.152,inactive
Gli,DRSC03332,-0.182,inactive
Gli,DRSC39818,-0.307,inactive
Lgr1,DRSC16675,0.283,inactive
Lgr1,DRSC39668,-0.404,inactive
Rab3-GEF,DRSC19954,0.235,inactive
Rab3-GEF,DRSC19955,-0.339,inactive
Rab3-GEF,DRSC27720,0.267,inactive
Hsepi,DRSC04986,-1.13,inactive
Hsepi,DRSC26089,-1.48,inactive
CG44153,DRSC02228,0.312,inactive
CG44153,DRSC02902,0.361,inactive
CG44153,DRSC02903,-0.759,inactive
Elo68alpha,DRSC22725,-0.0774,inactive
PGRP-LF,DRSC28930,-0.148,inactive
Or83c,DRSC12359,0.397,inactive
Or83c,DRSC39535,-0.0761,inactive
CG12914,DRSC06229,0.3,inactive
Strn-Mlck,DRSC05032,0.117,inactive
Strn-Mlck,DRSC07471,-1.1,inactive
Strn-Mlck,DRSC37023,0.56,inactive
Rh50,DRSC08692,1.86,active
Tsp66E,DRSC09683,-1.53,active
CG17991,DRSC15294,0.555,inactive
Or67d,DRSC10158,-0.455,inactive
Or67d,DRSC39518,0.447,inactive
sesB,DRSC20371,-1.21,inactive
sesB,DRSC29874,-0.131,inactive
MstProx + Mst84Da,DRSC12597,0.343,inactive
CG7881,DRSC04898,-0.269,inactive
CG7881,DRSC39816,-0.495,inactive
GluRIIA,DRSC03334,0.147,inactive
sing + Axs,DRSC19333,-0.293,inactive
sing + Axs,DRSC39847,-0.602,inactive
Toll-6,DRSC11304,-0.841,inactive
Toll-6,DRSC39854,6.65,active
Tsp97E,DRSC16019,-0.202,inactive
Tsp97E,DRSC28053,0.194,inactive
rg,DRSC17726,0.211,inactive
rg,DRSC18049,1.07,inactive
rg,DRSC29144,-0.441,inactive
rg,DRSC36613,0.335,inactive
rg,DRSC36614,-0.636,inactive
CG5281,DRSC15761,-0.172,inactive
CG5281,DRSC39880,-0.251,inactive
ZnT63C,DRSC08032,0.534,inactive
ZnT63C,DRSC08033,2.45,active
ZnT63C,DRSC23528,2.08,active
CG8925,DRSC16455,-0.00431,inactive
CG8925,DRSC16457,-0.428,inactive
mrva,DRSC21842,0.141,inactive
mrva,DRSC25508,-1.55,active
CG3690,DRSC18170,0.836,inactive
CG3690,DRSC18641,0.444,inactive
CG2187,DRSC15425,-0.0379,inactive
CG2187,DRSC25548,0.235,inactive
CG14605,DRSC12549,-0.577,inactive
CG14605,DRSC29195,0.538,inactive
Stt3B,DRSC16781,-0.439,inactive
Stt3B,DRSC39644,-0.613,inactive
Grl40a,DRSC03677,0.938,inactive
Grl40a,DRSC39639,-0.75,inactive
CG9643,DRSC00722,-0.663,inactive
CG9643,DRSC27948,0.218,inactive
fra,DRSC07621,-0.303,inactive
Tapdelta,DRSC05946,-1.08,inactive
Tapdelta,DRSC39531,-0.724,inactive
Pss,DRSC11757,-1.13,inactive
Pss,DRSC39436,-0.475,inactive
Ranbp16,DRSC20160,0.176,inactive
CG13869 + CG11099,DRSC24218,1.26,inactive
CG43693,DRSC09086,1.59,active
CG43693,DRSC10625,-0.967,inactive
Ir7f,DRSC18012,-0.249,inactive
Or65c,DRSC21312,-0.753,inactive
Or65c,DRSC39421,6.08,active
bark,DRSC00635,-0.0607,inactive
bark,DRSC27011,-0.594,inactive
Nup62,DRSC06970,1.83,active
CG8405,DRSC07166,0.832,inactive
CG8405,DRSC39857,-1.08,inactive
CG13743,DRSC22775,-0.712,inactive
Hmgcr,DRSC16704,0.79,inactive
rst,DRSC17243,-1.01,inactive
rst,DRSC18828,0.0816,inactive
rst,DRSC39453,-1.05,inactive
Gr28b,DRSC02291,0.0737,inactive
Gr28b,DRSC02292,-1.05,inactive
Gr28b,DRSC29459,0.478,inactive
Ranbp21,DRSC19447,-0.522,inactive
Ranbp21,DRSC39764,-0.308,inactive
